Data taken from paper PMC3554609.
No constants are given. Whether binding was seen depends on the method and setting. In cells and extracts the contact can be indirect. Some results given as binding are weak or reduced against the parent protein; the word gives no strength.

Amino acid sequences for entries named in this document (tags omitted).
UniProt Q3UP24: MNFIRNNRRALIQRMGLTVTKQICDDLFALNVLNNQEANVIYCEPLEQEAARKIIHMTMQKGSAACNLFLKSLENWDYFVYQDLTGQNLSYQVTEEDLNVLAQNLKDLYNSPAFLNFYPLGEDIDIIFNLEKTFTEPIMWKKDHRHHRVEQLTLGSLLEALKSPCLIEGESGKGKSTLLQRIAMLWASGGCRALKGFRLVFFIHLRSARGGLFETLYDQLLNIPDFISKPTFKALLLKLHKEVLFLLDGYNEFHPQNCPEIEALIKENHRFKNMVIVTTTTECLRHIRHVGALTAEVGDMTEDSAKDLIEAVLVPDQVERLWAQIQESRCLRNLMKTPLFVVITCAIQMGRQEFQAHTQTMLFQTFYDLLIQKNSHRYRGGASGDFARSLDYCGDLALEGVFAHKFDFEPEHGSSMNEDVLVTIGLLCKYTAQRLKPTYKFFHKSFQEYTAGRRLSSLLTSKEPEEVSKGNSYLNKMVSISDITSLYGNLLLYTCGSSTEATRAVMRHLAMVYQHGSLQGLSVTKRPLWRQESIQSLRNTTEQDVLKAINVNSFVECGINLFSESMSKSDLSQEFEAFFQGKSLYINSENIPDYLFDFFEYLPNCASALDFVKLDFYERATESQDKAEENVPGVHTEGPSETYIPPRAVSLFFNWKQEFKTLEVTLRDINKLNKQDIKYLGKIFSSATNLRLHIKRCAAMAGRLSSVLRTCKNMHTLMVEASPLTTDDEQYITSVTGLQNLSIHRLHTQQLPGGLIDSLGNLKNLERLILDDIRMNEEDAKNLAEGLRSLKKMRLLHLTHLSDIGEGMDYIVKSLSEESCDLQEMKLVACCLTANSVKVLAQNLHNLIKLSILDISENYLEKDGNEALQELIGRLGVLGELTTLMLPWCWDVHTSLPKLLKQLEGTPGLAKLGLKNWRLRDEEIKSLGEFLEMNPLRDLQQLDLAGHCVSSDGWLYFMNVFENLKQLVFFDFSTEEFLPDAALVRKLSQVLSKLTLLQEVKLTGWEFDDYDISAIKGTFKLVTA
UniProt Q9R016: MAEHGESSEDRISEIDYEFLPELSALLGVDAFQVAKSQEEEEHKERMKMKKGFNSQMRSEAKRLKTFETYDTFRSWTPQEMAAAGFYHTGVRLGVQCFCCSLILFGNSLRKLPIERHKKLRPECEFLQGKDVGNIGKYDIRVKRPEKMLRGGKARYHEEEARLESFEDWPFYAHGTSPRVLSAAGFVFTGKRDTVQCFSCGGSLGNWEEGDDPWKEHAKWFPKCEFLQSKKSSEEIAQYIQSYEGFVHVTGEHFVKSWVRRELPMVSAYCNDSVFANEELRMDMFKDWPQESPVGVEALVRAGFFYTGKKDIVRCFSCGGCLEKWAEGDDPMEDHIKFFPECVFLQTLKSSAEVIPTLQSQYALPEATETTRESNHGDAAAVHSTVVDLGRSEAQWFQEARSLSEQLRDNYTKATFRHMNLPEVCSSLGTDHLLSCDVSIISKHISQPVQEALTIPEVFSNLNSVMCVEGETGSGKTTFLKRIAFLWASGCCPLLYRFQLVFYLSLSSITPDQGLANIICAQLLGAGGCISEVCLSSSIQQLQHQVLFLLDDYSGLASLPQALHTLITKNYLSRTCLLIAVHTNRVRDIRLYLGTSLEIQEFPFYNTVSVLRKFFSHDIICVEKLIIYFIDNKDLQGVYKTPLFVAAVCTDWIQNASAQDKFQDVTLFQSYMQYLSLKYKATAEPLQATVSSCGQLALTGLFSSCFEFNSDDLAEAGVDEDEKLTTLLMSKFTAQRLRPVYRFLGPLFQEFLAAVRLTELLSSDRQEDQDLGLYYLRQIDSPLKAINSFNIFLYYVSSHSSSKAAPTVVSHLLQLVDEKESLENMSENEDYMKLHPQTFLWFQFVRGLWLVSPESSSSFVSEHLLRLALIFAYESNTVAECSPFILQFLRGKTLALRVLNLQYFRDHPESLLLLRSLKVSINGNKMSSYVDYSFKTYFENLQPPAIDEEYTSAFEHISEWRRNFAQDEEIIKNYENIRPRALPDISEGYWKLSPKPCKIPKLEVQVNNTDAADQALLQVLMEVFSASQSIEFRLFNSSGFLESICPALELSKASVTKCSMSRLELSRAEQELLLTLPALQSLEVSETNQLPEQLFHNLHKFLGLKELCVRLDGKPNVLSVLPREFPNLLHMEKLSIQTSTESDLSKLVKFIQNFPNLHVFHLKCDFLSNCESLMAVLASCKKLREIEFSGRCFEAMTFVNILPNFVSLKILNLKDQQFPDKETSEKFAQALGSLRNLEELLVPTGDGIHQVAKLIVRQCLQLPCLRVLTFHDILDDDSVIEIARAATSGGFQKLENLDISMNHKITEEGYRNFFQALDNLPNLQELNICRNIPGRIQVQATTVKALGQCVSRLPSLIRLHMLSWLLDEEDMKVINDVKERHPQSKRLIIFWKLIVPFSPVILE
UniProt P41785: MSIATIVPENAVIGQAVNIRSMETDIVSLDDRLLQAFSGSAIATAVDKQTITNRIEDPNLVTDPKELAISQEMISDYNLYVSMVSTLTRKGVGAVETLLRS
UniProt Q9QUK4: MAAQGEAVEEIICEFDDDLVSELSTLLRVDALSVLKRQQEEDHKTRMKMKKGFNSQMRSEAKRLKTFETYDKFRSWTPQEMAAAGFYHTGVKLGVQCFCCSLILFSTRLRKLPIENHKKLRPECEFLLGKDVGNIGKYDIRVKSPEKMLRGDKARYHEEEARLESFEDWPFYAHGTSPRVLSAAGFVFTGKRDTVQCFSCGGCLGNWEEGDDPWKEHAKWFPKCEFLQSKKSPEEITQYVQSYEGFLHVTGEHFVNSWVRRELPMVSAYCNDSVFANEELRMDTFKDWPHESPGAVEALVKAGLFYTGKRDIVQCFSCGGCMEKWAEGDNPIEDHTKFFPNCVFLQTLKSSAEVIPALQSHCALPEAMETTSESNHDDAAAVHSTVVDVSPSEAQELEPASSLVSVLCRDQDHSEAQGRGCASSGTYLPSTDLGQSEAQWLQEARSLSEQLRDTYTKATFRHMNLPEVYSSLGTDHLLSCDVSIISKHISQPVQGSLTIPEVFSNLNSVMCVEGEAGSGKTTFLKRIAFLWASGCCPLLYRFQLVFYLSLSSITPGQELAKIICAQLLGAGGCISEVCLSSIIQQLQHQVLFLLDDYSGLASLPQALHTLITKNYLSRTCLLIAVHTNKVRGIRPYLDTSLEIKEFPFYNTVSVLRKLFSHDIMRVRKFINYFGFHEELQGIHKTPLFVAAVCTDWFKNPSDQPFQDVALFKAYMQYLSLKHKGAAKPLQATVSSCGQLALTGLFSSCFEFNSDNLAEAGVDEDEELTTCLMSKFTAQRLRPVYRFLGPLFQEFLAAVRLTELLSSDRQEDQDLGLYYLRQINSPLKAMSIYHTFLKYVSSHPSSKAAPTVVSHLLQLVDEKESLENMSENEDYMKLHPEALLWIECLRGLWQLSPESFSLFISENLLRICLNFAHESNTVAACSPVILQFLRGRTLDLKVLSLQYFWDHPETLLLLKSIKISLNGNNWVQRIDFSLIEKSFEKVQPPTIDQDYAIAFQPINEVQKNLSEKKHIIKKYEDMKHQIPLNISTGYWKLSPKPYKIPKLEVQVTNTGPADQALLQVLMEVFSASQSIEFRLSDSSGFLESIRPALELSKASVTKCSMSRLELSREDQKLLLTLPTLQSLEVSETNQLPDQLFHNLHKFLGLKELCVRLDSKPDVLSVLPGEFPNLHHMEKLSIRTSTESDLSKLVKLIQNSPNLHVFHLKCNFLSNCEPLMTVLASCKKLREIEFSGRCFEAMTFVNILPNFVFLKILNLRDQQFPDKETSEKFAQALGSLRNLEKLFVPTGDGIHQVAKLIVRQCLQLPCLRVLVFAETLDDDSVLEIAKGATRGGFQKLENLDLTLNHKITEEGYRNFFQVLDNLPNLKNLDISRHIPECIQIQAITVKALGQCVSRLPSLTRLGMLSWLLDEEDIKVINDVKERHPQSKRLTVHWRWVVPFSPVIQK

Target: FLAG-NLRC4 (UniProt Q3UP24)
Experiment: co-IP

Question: With HA-NAIP5 (from UniProt Q9R016 1-1403) as the substance, how does the binding read?
Answer: binds

Question: How did the binding turn out when Myc-PrgJ (from UniProt P41785 1-101) was run?
Answer: binds

Question: For HA-NAIP2 (from UniProt Q9QUK4 1-1447), which binding is on record?
Answer: binds
